Reference: article PMC3641136
No constants are given. Whether binding was seen depends on the method and setting. In cells and extracts the contact can be indirect. Some binding calls cover weakened binding; strength is not graded here.

Biological target: T1, GlyT2, endogenous in rat brain stem primary neurons (rat (endogenous in brain stem primary neurons)) (UniProt P58295)
T1 sequence: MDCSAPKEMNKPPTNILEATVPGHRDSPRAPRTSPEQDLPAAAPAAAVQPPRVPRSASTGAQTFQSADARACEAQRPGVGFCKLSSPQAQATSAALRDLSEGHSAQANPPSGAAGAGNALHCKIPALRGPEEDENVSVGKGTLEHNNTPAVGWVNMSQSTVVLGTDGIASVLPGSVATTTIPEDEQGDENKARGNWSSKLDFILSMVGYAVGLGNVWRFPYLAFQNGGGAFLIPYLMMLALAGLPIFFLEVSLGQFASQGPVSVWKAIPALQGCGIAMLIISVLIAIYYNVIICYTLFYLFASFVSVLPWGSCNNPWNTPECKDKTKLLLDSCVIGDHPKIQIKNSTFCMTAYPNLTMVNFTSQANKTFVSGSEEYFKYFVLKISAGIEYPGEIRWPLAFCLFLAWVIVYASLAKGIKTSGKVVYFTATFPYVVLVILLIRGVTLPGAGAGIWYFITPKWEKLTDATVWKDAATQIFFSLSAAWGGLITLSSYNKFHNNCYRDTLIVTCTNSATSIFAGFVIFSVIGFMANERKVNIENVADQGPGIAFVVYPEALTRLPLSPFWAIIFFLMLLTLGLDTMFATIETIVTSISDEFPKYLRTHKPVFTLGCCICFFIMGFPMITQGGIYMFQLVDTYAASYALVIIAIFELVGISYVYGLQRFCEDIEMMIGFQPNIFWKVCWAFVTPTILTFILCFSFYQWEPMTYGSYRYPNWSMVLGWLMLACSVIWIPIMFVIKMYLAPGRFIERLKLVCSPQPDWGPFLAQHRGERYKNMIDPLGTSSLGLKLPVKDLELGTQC
Experiment: co-IP; rat brain stem primary neurons immunoprecipitated with anti-GlyT2 antibody made in rat; Western blot for GlyT2 or CNX with rabbit antibodies

binding: binds
B1: calnexin (CNX), endogenous in rat brain stem primary neurons (protein, UniProt P35565 21-591)
chain: HDGHDDDMIDIEDDLDDVIEEVEDSKSKSDTSTPPSPKVTYKAPVPTGEVYFADSFDRGSLSGWILSKAKKDDTDDEIAKYDGKWEVDEMKETKLPGDKGLVLMSRAKHHAISAKLNKPFLFDTKPLIVQYEVNFQNGIECGGAYVKLLSKTSELNLDQFHDKTPYTIMFGPDKCGEDYKLHFIFRHKNPKTGVYEEKHAKRPDADLKTYFTDKKTHLYTLILNPDNSFEILVDQSVVNSGNLLNDMTPPVNPSREIEDPEDRKPEDWDERPKIADPDAVKPDDWDEDAPSKIPDEEATKPEGWLDDEPEYIPDPDAEKPEDWDEDMDGEWEAPQIANPKCESAPGCGVWQRPMIDNPNYKGKWKPPMIDNPNYQGIWKPRKIPNPDFFEDLEPFRMTPFSAIGLELWSMTSDIFFDNFIISGDRRVVDDWANDGWGLKKAADGAAEPGVVGQMLEAAEERPWLWVVYILTVALPVFLVILFCCSGKKQSNAMEYKKTDAPQPDVKDEEGKEEEKNKGDEEEEEEKLEEKQKSDAEEDGGTGSQDEEDSKPKAEEDEILNRSPRNRKPRRE
